Measurements: PubChem BioAssay AID1347414 (National Center for Advancing Translational Sciences (NCATS), 2020)
Inconclusive means that the source gave no clear call. Such entries were picked first, then a sample of the others. Where the call is inconclusive, the potency comes from a doubtful curve fit. Activity calls are given as the source filed them. Calls come from the whole dose curve; as a rule, active = well fitted inhibition curve with a large enough effect; inconclusive = small, poorly fitted or top-dose-only effect; inactive = no such curve, though single readings can be large or run the other way.

Test: qHTS to identify inhibitors of the type 1 interferon - major histocompatibility complex class I in skeletal muscle: Secondary screen by immunofluorescence; note: nearly all actives have a fitted effect of over 70% in size;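 for activity change, negative = inhibition: digitonin at 100 µM served as the cytotoxic control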
Conditions: C25cl48 myoblasts, IFN-b induced HLA-ABC immunofluorescence, 24 h, Viability; series mostly up to 49.8 µM; activity change, negative = inhibition: at the top concentration
Description: Assay Submitter (PI): Travis B. Kinder Ph.D. & James Inglese Ph.D. Assay Development and Screening Technology Laboratory (ADST) National Center for Advancing Translational Sciences (NCATS), Rockville, MD National Institute of Health (NIH), Bethesda, Maryland Idiopathic inflammatory myopathies, collectively referred to as myositis, are a group of rare autoimmune diseases characterized by skeletal muscle inflammation, weakness, and usually accompanied by systemic pathologies of the skin, lungs, or vasculature. Current immunosuppressive therapies and glucocorticoids are often not curative and are accompanied by harsh side effects, especially in children with juvenile myositis. We initiated a drug repurposing and development program to identify more targeted, less toxic therapeutics to treat myositis. Although its cause is not known, muscle from a subset of patients have an abundance of the inflammatory type 1 interferon (IFN) and a down-stream product major histocompatibility complex class I (MHC class I), which are both thought to contribute to damage and weakness. We conducted quantitative high throughput screening (qHTS) on 6,576 compounds (4,679 unique) through a series of cell-based assays to identify those that inhibit the IFN-stimulated expression of MHC class I in muscle precursor cells (myoblasts). The compound identification and evaluation strategy utilized a primary screen with reporter-tagged MHC class I in genome-engineered myoblasts, ATP content counter screen for viability, HLA-ABC immunofluorescence secondary screen, and HLA-B RT-qPCR tertiary screen. To verify activity of compounds identified by qHTS in HLA-B HiBit reporter cells, compounds were assayed by high throughput HLA-ABC immunofluorescence. Briefly, 216 compounds identified from primary and counter screening as inhibitory with minimal cytotoxicity were dispensed into black/clear bottom […] using acoustic dispensing in an 11-point, 1:3 titration with a high final concentration of 50 uM. Normal immortalized human myoblasts C25cl48 were added to the plates with 4.0 ng/ml human IFN-beta for 24 hours, fixed, stained by immunofluorescence for HLA-ABC protein, nuclei, and cell body, and analyzed by laser scanning cytometry as described by Auld et al., 2006. References: Auld DS, Johnson RL, Zhang Y, Veith H, Jadhav A, Yasgar A, Simeonov A, Zheng W, Martinez ED, Westwick JK, Austin CP, Inglese J. 2006. Fluorescent protein-based cellular assays analyzed by laser-scanning microplate cytometry in 1536-well plate format. Methods Enzymol 414:566-89. doi:10.1016/S0076-6879(06)14029-X
PROTOCOL TABLE (as described by Inglese et al., 2007) SEQUENCE No. (e.g., 1, 2, 3, etc.); […] (e.g., Cells, Incubation, Reagent, etc.); VALUE; DESCRIPTION 0; Compounds; 25 nl; Follow-up compounds dispensed at 25 nl/well with Labcyte Echo 655 acoustic dispenser in triplicate Aurora ChemLib 1536K black/clear bottom, low base, TC 1536-well plates (00019324). Also dispensed 25 nl/well DMSO control, ruxolitinib IFN-b inhibitor control titration, and digitonin cytotoxic control 1a; Cells; 5 uL; Multidrop Combi (Thermo Scientific) to seed 125 cells/well into eight plates in 5 ul/well of iHSKM growth medium (GM) without dexamethasone into columns 1+2. Add metal lids with gas-exchange holes 1b; Cells; 5 uL; Multidrop Combi (Thermo Scientific) to seed 125 cells/well into eight plates in 5 ul/well of iHSKM GM without dexamethasone + 4 ng/ml IFN-b into columns 3 - 48. […]
% is set by controls: 0 for no effect and ±100 for the full control effect; potency is the fitted concentration of half-maximal effect.

With CC(C)(C)c1cc(C=C(C#N)C#N)cc(C(C)(C)C)c1O as the compound, how does the “activity change, negative = inhibition” value read?
The value was inactive: 2.35%.

Which Potency does the source give for CCn1cnc2c(Nc3cccc(Cl)c3)nc(N[C@@H]3CCCC[C@@H]3N)nc21 here?
The Potency was active: 25.7 µM.

For O=[N+]([O-])/C=C/c1ccc2c(c1)OCO2, which Potency is on record?
The Potency was active: 11.5 µM.

Which Potency does the source give for O=c1[nH]c2ccc(Cl)cc2c(N[C@@H]2CN3CCC2CC3)c1-c1nc2ccccc2[nH]1 here?
Its Potency is active: 4.58 µM.

For CC(C)(O)/C=C\C(=O)[C@](C)(O)[C@H]1[C@H](O)C[C@]2(C)[C@@H]3CC=C4[C@@H](C=C(O)C(=O)C4(C)C)[C@]3(C)C(=O)C[C@@]12C, which Potency is on record?
The Potency was active: 16.2 µM.

For Cc1[nH]nc2ccc(-c3cncc(OC[C@@H](N)Cc4c[nH]c5ccccc45)c3)cc12, which Potency is on record?
Its Potency is inconclusive: 25.7 µM [cytotoxic, partial curve, poor fit].

For CC[C@@]1(O)C(=O)OCc2c1cc1n(c2=O)Cc2cc3ccccc3nc2-1, which Potency is on record?
The Potency was “inactive”.

For C/C=C(/C)C(=O)O[C@H]1C(C)=C2[C@H]([C@@H]1OC(=O)CCCCCCC)[C@@](C)(OC(C)=O)C[C@H](OC(=O)CCC)[C@@]1(O)[C@H]2OC(=O)[C@@]1(C)O, which Potency is on record?
The Potency was inconclusive: 0.0145 µM [cytotoxic, single point].
